Values after ≈ are worked out from the molar mass of the structure shown. Like-named read-outs stand apart in the source and are kept apart here.
System: S. aureus
Assay: microbe, parasite or virus in culture
Type: cell-based
Conditions: Staphylococcus aureus
Procedure: The bacterial strains used in this study are multi-drug resistant clinical isolates that have previously been described (Supplementary Table S1; [Fleeman et al., 2015]). Organisms were grown in tryptic soy broth (TSB) for overnight cultures and cation adjusted Mueller Hinton broth (CA-MH II) was used for experimental procedures. All incubations were performed at 37°C. The minimum inhibitory concentrations (MICS) for all antibiotics tested against these organisms are shown in Supplementary Table S1.

## CN(C)[C@@H]1C(O)=C(C(N)=O)C(=O)[C@@]2(O)C(O)=C3C(=O)c4c(O)cccc4[C@@](C)(O)[C@H]3C[C@@H]12 [tetracycline]
USA100, read-out: minimal inhibitory concentration
  MIC: 1.76 µM (≈ 0.782 µg/mL)
USA300, read-out: minimal inhibitory concentration
  MIC: 2.25 µM (≈ 1 µg/mL)

From paper PMC6010545, “Identification of a Novel Polyamine Scaffold With Potent Efflux Pump Inhibition Activity Toward Multi-Drug Resistant Bacterial Pathogens” (Frontiers in Microbiology, 2018)
